In all, about 360,000 compounds went through this assay and about 7,500 (2.1%) were called active. This list was built around the results that the source calls inconclusive (neither active nor inactive); the mix of calls is not that of the screen. The call rests on the fitted dose curve; in most records, active means well fitted inhibition curve with a large enough effect; inconclusive means small, poorly fitted or top-dose-only effect, or effect the other way; inactive means flat fitted curve, though single readings scatter. Potencies of inconclusive entries are doubtful fits and often do not repeat.
assay: Nrf2 qHTS screen for inhibitors; conditions: A549 ARE-Fluc reporter, luciferase luminescence, 18-24 h; activity change, negative = inhibition: at 46 µM (top of the series); further: nearly all actives have a fitted effect of over 60% in size
Outline: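 Reporter: ARE-Fluc in A549. Exposure: 18-24 h, 37 °C, 5% CO2, 5% FBS OPTI-MEM. Readouts: fluorescent cytotoxicity (CellTiter-Fluor), then luminescent Nrf2 signal after BugLite.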
On the % scale 0 is the no-effect control and ±100 the full control effect; potency means the concentration at half of the fitted maximal effect.

Compound	activity change, negative = inhibition	Potency
Cc1ccc(CONC(=O)c2ccc(Cl)cc2)cc1	inactive: 14.3%	
CC1Cc2ccccc2N1C(=O)C1CC(=O)N(c2ccccc2)C1 (centres undefined)		inconclusive: 32.6 µM [falling, single point]
CC(=O)c1ccc(NC(=O)C2CCC(CNS(=O)(=O)c3ccc4c(c3)CCCC(=O)N4)CC2)cc1 (centres undefined)		inconclusive: 10.3 µM [activator, partial curve, poor fit]
Nc1cc(N2CCCC2)c(Cl)cc1[N+](=O)[O-]	inactive: -2.56%	
CCOc1ccc(CNC(=O)C2CCN(c3nnc(C)c4c(C)n(-c5ccc(C)cc5)nc34)CC2)cc1		inconclusive: 29.1 µM [falling, single point]
CSc1nn(Cc2ccc(Br)cc2)c(N(C(C)=O)C(C)=O)c1S(=O)(=O)c1ccccc1		inconclusive: 29.1 µM [falling, single point]
Cc1cc2cc(CNC(=O)c3ccc(S(=O)(=O)N(C)C)cc3)ccc2n1C		inconclusive: 3.66 µM [falling, single point]
CN(Cc1ccccc1F)c1nc(-c2cccnc2)nc2ccccc12		inconclusive: 29.1 µM [falling, single point]
Cc1c(C(=O)N(C)c2cccc(C(F)(F)F)c2)sc2nc3n(c(=O)c12)CCCCC3	inactive: 23.1%	
O=C(NCCc1ccccc1Cl)C1CCN(S(=O)(=O)c2cccs2)CC1		inconclusive: 25.9 µM [falling, partial curve, poor fit]
CN(C)/C=C1\C(=O)Oc2ccccc2C1=O		inconclusive: 23.1 µM [falling, single point]
CC(=O)c1c(C)[nH]c(C(=O)OCC(=O)NCCc2ccc(F)cc2)c1C		inconclusive: 29.1 µM [falling, single point]
NS(=O)(=O)Nc1c(Br)cc(Br)c2cccnc12	inactive: -1.79%	
CC(C)n1c(SCC(=O)Nc2nc3ccccc3s2)nc2c1c(=O)n(C)c(=O)n2C		inconclusive: 29.1 µM [falling, single point]
CCOc1ccc(CNC(=O)c2cnc3sc(N4CCC(C)CC4)nn3c2=O)cc1OC		inconclusive: 20.6 µM [activator, partial curve, poor fit]
CC(C)NC(=O)c1cc(-c2ccc3c(c2)OCO3)on1		inconclusive: 0.461 µM [activator, full curve, poor fit]
Clc1ccccc1OCc1nc(-c2ccncc2)no1		inconclusive: 4.11 µM [activator, full curve]
N#CNC(=Nc1cccc(F)c1)SCc1cccc(F)c1		active: 23.1 µM
Cc1ccc(-c2nnc(NC(=O)c3ccco3)o2)c(C)c1	inactive: -6.88%	

Single records, as listed above.
CC(C)n1c(SCC(=O)Nc2nc3ccccc3s2)nc2c1c(=O)n(C)c(=O)n2C as listed: Potency: inconclusive: 29.1 µM [falling, single point]
Cc1cc2cc(CNC(=O)c3ccc(S(=O)(=O)N(C)C)cc3)ccc2n1C as listed: Potency: inconclusive: 3.66 µM [falling, single point]
